This passage reports binding results from PMC4468860.

Results are given in words; binding and its absence hold for the method and conditions named. Binding seen in cells or lysates may run through a third protein. A result given as binding can be weak or reduced; the word gives no strength. Tags and fused reporters may be left off the sequences shown.

The assay concerns the target T1, GST-LNt (rat) (UniProt Q63560).
T1 sequence: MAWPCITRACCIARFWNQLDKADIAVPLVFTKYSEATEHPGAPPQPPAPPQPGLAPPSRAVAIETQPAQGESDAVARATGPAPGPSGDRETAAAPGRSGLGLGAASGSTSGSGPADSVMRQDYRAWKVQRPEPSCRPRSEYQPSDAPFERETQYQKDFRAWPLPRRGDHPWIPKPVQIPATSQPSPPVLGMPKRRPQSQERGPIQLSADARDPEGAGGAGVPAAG
The assay is described as follows: pull-down; GST-LNt on glutathione-sepharose beads incubated with postnatal brain lysate; blots probed with anti-p85 or anti-intersectin; only the target purified.

For the substance p85 subunit of PI3K (endogenous, brain), the binding result is recorded as “binds”.
